Data as given in PubChem BioAssay AID1259308 (NCATS, 2017).
Shown is a random part of about 59,000 reagents tested. Of all reagents, about 1,510 (2.6%) are marked active. 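Calls use total luciferase alone and ignore viability, so some active siRNAs may act by altering cell number.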 The numbers tell different reagents against one gene apart. Reagent sequences are not shown.

- Purpose: 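Knock-downs that increase output of a recombinant reporter protein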 (primary screen)
- System: human HEK293 embryonic kidney cells stably expressing firefly luciferase (HEK-CMV-Luc2-Hygro)
- Knock-down reagent: single siRNA against human genes, 0.8 pmol siRNA per well
- Time to read-out: 72 h
- Measured: 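Reporter luminescence and viable-cell signal on separate replicate plates, given as percent of non-targeting control and median/MAD z-scores, plus per-cell luciferase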
- Direction: total luciferase, z-score and total luciferase, % of control: higher = more reporter protein produced; luciferase per cell, z-score: higher = more reporter output per viable cell; viable cells, % of control: higher = more viable cells
- Hit rule: 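Active when the median/MAD z-score for overall luciferase is greater than 3; a gene was taken forward for validation with new siRNAs if at least two of its three siRNAs passed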
- Meaning of the calls: active = raised luciferase; inactive = no rise

Target gene | reagent no. | total luciferase, z-score | total luciferase, % of control | luciferase per cell, z-score | viable cells, % of control | outcome
ZSCAN32 (GeneID 54925) | 1 | 0.022 | 82.3 | 1.62 | 60.1 | inactive
ZSCAN32 (GeneID 54925) | 2 | 0.311 | 88.1 | 0.638 | 83.2 | inactive
ZSCAN32 (GeneID 54925) | 3 | -0.398 | 74 | -0.67 | 98.6 | inactive
MRPS26 (GeneID 64949) | 1 | -0.619 | 69.6 | -0.918 | 99 | inactive
MRPS26 (GeneID 64949) | 2 | -0.572 | 70.5 | 0.186 | 75 | inactive
MRPS26 (GeneID 64949) | 3 | -1.86 | 44.8 | -1.63 | 77 | inactive
PEX2 (GeneID 5828) | 1 | 0.714 | 96.1 | 1.11 | 80.1 | inactive
PEX2 (GeneID 5828) | 2 | 0.184 | 85.5 | 0.68 | 79.9 | inactive
PEX2 (GeneID 5828) | 3 | -0.646 | 69 | 0.396 | 69.5 | inactive
KRT85 (GeneID 3891) | 1 | 1.46 | 111 | 0.844 | 99.2 | inactive
KRT85 (GeneID 3891) | 2 | -0.389 | 74.2 | -0.0816 | 84.7 | inactive
KRT85 (GeneID 3891) | 3 | 0.283 | 87.5 | -0.0497 | 99.1 | inactive
RPL21 (GeneID 6144) | 1 | -2.93 | 23.7 | -2.34 | 49 | inactive
RPL21 (GeneID 6144) | 2 | -2.77 | 26.7 | -0.402 | 33.2 | inactive
RPL21 (GeneID 6144) | 3 | -2.91 | 24 | -2.83 | 56.4 | inactive
CNTN4 (GeneID 152330) | 1 | 0.31 | 88 | 0.0362 | 97.5 | inactive
CNTN4 (GeneID 152330) | 2 | -1.04 | 61.3 | -1.2 | 93.9 | inactive
CNTN4 (GeneID 152330) | 3 | -0.507 | 71.8 | -0.174 | 84 | inactive
MRGBP (GeneID 55257) | 1 | 1.34 | 108 | 0.945 | 94.5 | inactive
MRGBP (GeneID 55257) | 2 | 0.57 | 93.2 | 0.283 | 96.7 | inactive
MRGBP (GeneID 55257) | 3 | 1.41 | 110 | 1.17 | 90.1 | inactive
SLC39A4 (GeneID 55630) | 1 | -0.145 | 79 | -0.608 | 104 | inactive
SLC39A4 (GeneID 55630) | 2 | -0.329 | 75.3 | -0.22 | 89.2 | inactive
SLC39A4 (GeneID 55630) | 3 | -0.279 | 76.3 | -0.353 | 93.6 | inactive
ODF4 (GeneID 146852) | 1 | 0.818 | 98.2 | 1.24 | 79.2 | inactive
ODF4 (GeneID 146852) | 2 | -1.23 | 57.5 | -1.81 | 104 | inactive
ODF4 (GeneID 146852) | 3 | 1.64 | 114 | 1.2 | 93.3 | inactive
CNTLN (GeneID 54875) | 1 | -0.629 | 69.4 | -1 | 101 | inactive
CNTLN (GeneID 54875) | 2 | -0.88 | 64.4 | -0.287 | 77.6 | inactive
CNTLN (GeneID 54875) | 3 | 0.0538 | 83 | 0.729 | 76.5 | inactive
OR5W2 (GeneID 390148) | 1 | -0.134 | 79.2 | -0.325 | 96.4 | inactive
OR5W2 (GeneID 390148) | 2 | -2.15 | 39.1 | -1.98 | 73.6 | inactive
OR5W2 (GeneID 390148) | 3 | 2.09 | 123 | 1.31 | 97.6 | inactive
ALOX15B (GeneID 247) | 1 | -1.42 | 53.6 | -1.99 | 101 | inactive
ALOX15B (GeneID 247) | 2 | 0.793 | 97.7 | 0.61 | 92.9 | inactive
ALOX15B (GeneID 247) | 3 | 1.16 | 105 | 1.67 | 75.5 | inactive
ZNF675 (GeneID 171392) | 1 | 2.03 | 122 | 1.85 | 84.1 | inactive
ZNF675 (GeneID 171392) | 2 | -1.48 | 52.4 | -1.54 | 87.8 | inactive
ZNF675 (GeneID 171392) | 3 | -0.451 | 72.9 | 0.19 | 77.5 | inactive
GNPNAT1 (GeneID 64841) | 1 | 0.206 | 86 | -0.0308 | 96.9 | inactive
GNPNAT1 (GeneID 64841) | 2 | -0.353 | 74.9 | -0.462 | 94.5 | inactive
GNPNAT1 (GeneID 64841) | 3 | -0.236 | 77.2 | 0.463 | 76.4 | inactive
FZD8 (GeneID 8325) | 1 | 0.331 | 88.5 | 0.39 | 89.2 | inactive
FZD8 (GeneID 8325) | 2 | -0.0191 | 81.5 | 0.396 | 82.1 | inactive
FZD8 (GeneID 8325) | 3 | -2.03 | 41.5 | -2.73 | 95.2 | inactive
MUTYH (GeneID 4595) | 1 | 0.222 | 86.3 | 0.599 | 82.4 | inactive
MUTYH (GeneID 4595) | 2 | 0.639 | 94.6 | -0.158 | 110 | inactive
MUTYH (GeneID 4595) | 3 | 0.409 | 90 | 0.518 | 87.8 | inactive
SAAL1 (GeneID 113174) | 1 | -0.485 | 72.2 | -0.917 | 103 | inactive
SAAL1 (GeneID 113174) | 2 | 0.383 | 89.5 | 0.402 | 90 | inactive
SAAL1 (GeneID 113174) | 3 | -1.65 | 49 | -2.28 | 100 | inactive
RGS13 (GeneID 6003) | 1 | -0.598 | 70 | 0.605 | 66.7 | inactive
RGS13 (GeneID 6003) | 2 | -0.0786 | 80.3 | -0.761 | 110 | inactive
RGS13 (GeneID 6003) | 3 | -0.837 | 65.2 | -0.485 | 82.8 | inactive
GBP4 (GeneID 115361) | 1 | 1.48 | 111 | 2.59 | 63 | inactive
GBP4 (GeneID 115361) | 2 | -0.331 | 75.3 | -0.219 | 89.1 | inactive
GBP4 (GeneID 115361) | 3 | 0.556 | 92.9 | 0.029 | 103 | inactive

An excerpt from above, limited to “viable cells, % of control”.
SLC39A4 (GeneID 55630) #1	104
SLC39A4 (GeneID 55630) #2	89.2
SLC39A4 (GeneID 55630) #3	93.6
ODF4 (GeneID 146852) #1	79.2
ODF4 (GeneID 146852) #2	104
ODF4 (GeneID 146852) #3	93.3
CNTLN (GeneID 54875) #1	101
CNTLN (GeneID 54875) #2	77.6
